In this assay the test system is P388 leukemia ip, CD2F1 mice, survival T/C. Kind of assay: NCI In Vivo Anticancer Drug Screen. Data for tumor model P388 Leukemia (intraperitoneal) in CD2F1 (CDF1) mice. The note with it: T/C endpoint: median survival time, higher T/C = longer survival.
The mark [1] stands for this setting: dose: 400.0 mg/kg/injection, schedule: Q01DX009 (ip), vehicle: saline with Tween-80.
The mark [2] stands for this setting: dose: 200.0 mg/kg/injection, schedule: Q01DX009 (ip), vehicle: saline.

The list does not hold the whole screen: it gathers tests that were run many times, whatever their T/C, doses with no T/C, and many T/C values between a quarter and a half above the control. Other doses and runs of a compound stand elsewhere. T/C is the treated group as % of the vehicle group. Some entries give survivors of the animals treated and no T/C: the source files T/C as zero there, which appears to mark a toxic dose or a test without result, not a measured value. Some doses without a T/C left all or most animals alive at the check, yet need not have been tolerated: survival well below the control is almost never listed, so the zero probably covers shortened survival too. Counts of survivors are from the toxicity check (mostly the fifth day) where no day follows; animals may have died later. Schedule codes are those of the source, taken here to give the interval after Q, in days (D) or hours (H), and the number of doses after X. Where survival is the endpoint, this PubChem deposit counts one and a half times the control or more as active, and values a quarter to a half above the control carry no call in these data; other NCI protocols may use other cut-offs. Some T/C values are followed by the survivors on the day toxicity was checked, most often the fifth; where none is given, no animal had died by that day. Some entries hold several experiments; the values are given in rising order.

As for `CC1([CH2][Hg][I])OCCOC1[CH2][Hg][I]` (centres undefined), the survivor count is recorded as 1 of 6 (dose: 50.0 mg/kg/injection, schedule: Q01DX009 (ip), vehicle: saline) and 1 of 6 (dose: 100.0 mg/kg/injection, schedule: Q01DX009 (ip), vehicle: saline).

For the molecule `CCNc1ccc(/C=C2\C=Cc3ccccc32)cc1`, the survivor count is given as 6 of 6 (dose: 50.0 mg/kg/injection, schedule: Q01DX009 (ip), vehicle: Klucel (hydroxypropylcellulose) (HPC)) and 6 of 6 (dose: 100.0 mg/kg/injection, schedule: Q01DX009 (ip), vehicle: Klucel (hydroxypropylcellulose) (HPC)).

With `O=C(CCCl)N/N=C/c1ccccc1`, the T/C (dose: 19.5 mg/kg/injection, schedule: Q01DX009 (ip), vehicle: saline + alcohol) was 144 % of control. Further, the survivor count was 3 of 6 (dose: 20.0 mg/kg/injection, schedule: Q01DX009 (ip), vehicle: saline); 4 of 6 (dose: 39.0 mg/kg/injection, schedule: Q01DX009 (ip), vehicle: saline + alcohol); 0 of 6 (dose: 40.0 mg/kg/injection, schedule: Q01DX009 (ip), vehicle: saline); 0 of 6 (dose: 78.0 mg/kg/injection, schedule: Q01DX009 (ip), vehicle: saline + alcohol).

Regarding `CC1(C)N=C(N)N=C(N)N1c1cccc(CCCCc2ccc(Cl)c(S(=O)(=O)F)c2)c1`, the T/C runs as follows: (dose: 4.0 mg/kg/injection, schedule: Q01DX009 (ip), vehicle: saline) 130 % of control; (dose: 6.0 mg/kg/injection, schedule: Q01DX009 (ip), vehicle: saline) 140 % of control; (dose: 6.22 mg/kg/injection, schedule: Q01DX009 (ip), vehicle: saline) 127 % of control; (dose: 9.0 mg/kg/injection, schedule: Q01DX009 (ip), vehicle: saline) 135 % of control; (dose: 14.0 mg/kg/injection, schedule: Q01DX009 (ip), vehicle: saline) 127 % of control. The survivor count (dose: 21.0 mg/kg/injection, schedule: Q01DX009 (ip), vehicle: saline) was 5 of 6.

Turning to `CCCCCCCCCCCCOP(=O)(N1CC1(C)C)N1CC1(C)C` (centres undefined), the T/C is, setting by setting: (dose: 10.0 mg/kg/injection, schedule: Q01DX001 (ip), vehicle: saline with Tween-80) 99, 100, 104, 105 % of control; (dose: 20.0 mg/kg/injection, schedule: Q01DX001 (ip), vehicle: saline with Tween-80) 101, 102, 106, 122 % of control; (dose: 40.0 mg/kg/injection, schedule: Q01DX001 (ip), vehicle: saline with Tween-80) 102, 111, 112, 122 % of control; (dose: 80.0 mg/kg/injection, schedule: Q01DX001 (ip), vehicle: saline with Tween-80) 101, 108, 110, 114 % of control [5 of 6 alive].

Take `CCOC(=O)c1sc(N)nc1C`: the T/C (dose: 200.0 mg/kg/injection, schedule: Q01DX009 (ip), vehicle: saline with Tween-80) is 131 % of control [5 of 6 alive]. For the same molecule, the survivor count under setting [1] is 3 of 6.

With `C=C1CC2C3CCC=C3C(c3ccc(OC)cc3)C2C1=O` (centres undefined), the survivor count (dose: 400.0 mg/kg/injection, schedule: Q01DX001 (ip), vehicle: Klucel (hydroxypropylcellulose) (HPC)) is recorded as 0 of 6.

On to `O=C(CN1CCCCC1)Nc1cccc(Cl)c1`, for which, under setting [1], the survivor count is 0 of 6.

As to `O=[N+]([O-])c1cc2[nH]cnc2c([N+](=O)[O-])c1NCc1ccccc1`, the survivor count (dose: 400.0 mg/kg/injection, schedule: Q04DX002 (ip), vehicle: saline with Tween-80) was 3 of 6.

Take `CNCCN1CCC(Cc2ccccc2)CC1`: the survivor count under setting [2] was 2 of 4 and the survivor count (dose: 400.0 mg/kg/injection, schedule: Q01DX009 (ip), vehicle: saline) was 0 of 4.

For `CCCCCC(CN(C)C)C(/C=C/c1ccc(Cl)c(Cl)c1)=N\O` (centres undefined), the survivor count under setting [2] is on record as 1 of 6.

Consider `O=C1C=CC(=O)C1=Cc1ccccc1`, for which the survivor count (dose: 10.0 mg/kg/injection, schedule: Q04DX002 (ip), vehicle: saline with Tween-80) is given as 1 of 6.

Take `O=C(O)C1C2c3ccccc3C(c3ccccc32)C1C(=O)NCC1CC1` (centres undefined): the survivor count (dose: 240.0 mg/kg/injection, schedule: Q01DX005 (ip), vehicle: Klucel (hydroxypropylcellulose) (HPC)) is recorded as 0 of 6.

Values taken from PubChem BioAssay AID330 (DTP/NCI, 2004).
